Data reported in PMC4024641.
These are yes or no findings as the source states them, for the method shown. Binding seen in cells or lysates may run through a third protein. These calls come from enrichment with a bait or labelling near it, and not all partners need be listed. A no says only that the protein was not detected with the bait. Sequences can lack the tags named with a protein.

The chains behind the UniProt entries cited, without tags or fusion partners.
UniProt O60016: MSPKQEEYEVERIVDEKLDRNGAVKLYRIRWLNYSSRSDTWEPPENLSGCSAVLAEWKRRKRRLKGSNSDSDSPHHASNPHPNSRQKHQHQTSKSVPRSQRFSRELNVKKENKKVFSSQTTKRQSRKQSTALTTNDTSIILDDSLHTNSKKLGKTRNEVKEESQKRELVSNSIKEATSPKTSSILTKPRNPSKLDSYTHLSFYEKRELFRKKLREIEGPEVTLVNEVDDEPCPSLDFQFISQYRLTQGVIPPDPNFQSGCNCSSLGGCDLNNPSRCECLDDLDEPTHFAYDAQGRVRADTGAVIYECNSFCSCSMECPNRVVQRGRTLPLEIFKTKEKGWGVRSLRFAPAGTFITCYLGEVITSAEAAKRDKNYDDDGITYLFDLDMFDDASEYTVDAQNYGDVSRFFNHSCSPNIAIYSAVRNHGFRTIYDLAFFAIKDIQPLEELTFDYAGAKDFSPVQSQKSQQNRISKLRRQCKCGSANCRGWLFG

Legend:
Assay in all cases: affinity purification with mass spectrometry; 3×FLAG- or 13×myc-tagged bait purified from S. pombe cell extract on α-FLAG (M2) or α-myc (9E10) antibody cross-linked to Protein G Dynabeads, 4°C for 3 h, IP buffer (20 mM HEPES pH 7.5, 100 mM NaCl, 5 mM MgCl2, 1 mM EDTA, 10% glycerol, 0.25% Triton X-100, 0.5 mM DTT); LC-MS/MS; Red1-3×FLAG also from iss10Δ, rmn1Δ and Mtl1 knockdown cells
Mtl1-3×FLAG (S. pombe) = molecular target: T1, Mtl1-3×FLAG (S. pombe) (UniProt O13799)
T1 sequence: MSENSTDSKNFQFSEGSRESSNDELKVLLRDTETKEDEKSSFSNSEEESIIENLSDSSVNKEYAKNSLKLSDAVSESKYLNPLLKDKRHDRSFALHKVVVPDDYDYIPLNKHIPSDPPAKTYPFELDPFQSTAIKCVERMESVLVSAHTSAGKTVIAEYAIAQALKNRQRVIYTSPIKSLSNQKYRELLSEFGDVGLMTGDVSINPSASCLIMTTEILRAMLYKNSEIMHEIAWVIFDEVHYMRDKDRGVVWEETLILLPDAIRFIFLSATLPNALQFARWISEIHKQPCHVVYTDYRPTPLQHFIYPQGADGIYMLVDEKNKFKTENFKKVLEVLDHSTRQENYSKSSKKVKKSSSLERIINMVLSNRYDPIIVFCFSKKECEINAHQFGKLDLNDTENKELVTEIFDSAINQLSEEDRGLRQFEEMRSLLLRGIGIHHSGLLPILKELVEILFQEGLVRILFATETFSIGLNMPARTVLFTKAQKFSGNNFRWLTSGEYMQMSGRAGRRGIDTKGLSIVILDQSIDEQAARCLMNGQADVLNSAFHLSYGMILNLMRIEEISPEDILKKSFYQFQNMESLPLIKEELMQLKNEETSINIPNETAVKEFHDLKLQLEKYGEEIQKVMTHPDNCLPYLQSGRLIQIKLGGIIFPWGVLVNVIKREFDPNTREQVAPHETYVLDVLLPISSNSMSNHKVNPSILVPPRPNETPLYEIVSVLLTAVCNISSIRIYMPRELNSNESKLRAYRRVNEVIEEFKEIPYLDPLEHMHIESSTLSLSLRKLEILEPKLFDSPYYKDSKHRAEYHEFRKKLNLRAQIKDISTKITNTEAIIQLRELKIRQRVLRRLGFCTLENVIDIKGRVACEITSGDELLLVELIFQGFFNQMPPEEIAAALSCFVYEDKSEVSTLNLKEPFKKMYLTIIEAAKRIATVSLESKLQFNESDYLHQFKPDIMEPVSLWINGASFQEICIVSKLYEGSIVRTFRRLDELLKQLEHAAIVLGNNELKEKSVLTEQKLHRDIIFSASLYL

Red5-3×FLAG (S. pombe) = molecular target: T2, Red5-3×FLAG (S. pombe) (UniProt O74823)
T2 sequence: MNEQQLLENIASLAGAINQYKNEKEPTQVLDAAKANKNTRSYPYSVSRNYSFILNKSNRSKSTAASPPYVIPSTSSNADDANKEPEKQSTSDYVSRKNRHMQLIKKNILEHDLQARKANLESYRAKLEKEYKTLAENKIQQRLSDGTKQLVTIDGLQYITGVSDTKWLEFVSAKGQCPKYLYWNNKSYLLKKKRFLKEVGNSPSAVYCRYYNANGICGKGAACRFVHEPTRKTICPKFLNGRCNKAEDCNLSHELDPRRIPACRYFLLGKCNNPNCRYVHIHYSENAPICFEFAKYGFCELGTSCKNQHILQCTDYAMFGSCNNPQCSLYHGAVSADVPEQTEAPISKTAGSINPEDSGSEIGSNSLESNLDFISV

Rmn1-13×myc (S. pombe) = molecular target: T3, Rmn1-13×myc (S. pombe) (UniProt Q9USP9)
T3 sequence: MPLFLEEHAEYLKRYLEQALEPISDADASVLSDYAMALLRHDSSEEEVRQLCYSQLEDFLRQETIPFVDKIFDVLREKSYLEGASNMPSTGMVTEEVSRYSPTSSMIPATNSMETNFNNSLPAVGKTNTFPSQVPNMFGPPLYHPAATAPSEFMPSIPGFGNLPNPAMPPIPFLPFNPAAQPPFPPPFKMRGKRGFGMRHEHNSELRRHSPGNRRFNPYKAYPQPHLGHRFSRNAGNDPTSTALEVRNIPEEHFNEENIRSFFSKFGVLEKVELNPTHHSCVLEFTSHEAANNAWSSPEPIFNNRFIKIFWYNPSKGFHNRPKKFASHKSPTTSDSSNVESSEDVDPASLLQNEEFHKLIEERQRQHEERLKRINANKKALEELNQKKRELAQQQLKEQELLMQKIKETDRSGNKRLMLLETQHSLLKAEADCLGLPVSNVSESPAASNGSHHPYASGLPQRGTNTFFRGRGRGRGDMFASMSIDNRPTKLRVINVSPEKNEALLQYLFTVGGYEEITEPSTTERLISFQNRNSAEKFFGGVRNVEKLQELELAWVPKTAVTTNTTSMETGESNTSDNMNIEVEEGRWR

Measured: binding

Clr4 (from UniProt O60016 1-490)
no binding: all assays above
